Results as given in patent publication US10563263B2, “Genetic polymorphisms associated with statin response and cardiovascular diseases, methods of detection and uses thereof” (CELERA CORPORATION, priority 2010, dated 2020).

System: revascularization, unstable angina requiring hospitalization, MI, all causes of death, or stroke
Assay: PROVE IT-TIMI 22: SNP by treatment interaction (high-dose atorvastatin vs standard-dose pravastatin), logistic regression (synergy index), primary composite endpoint
Type: in vivo, human
Conditions: for OR (synergy index), PROVEIT, Atorv vs Prav: Caseonly

In the case of `CC(C)c1c(C(=O)Nc2ccccc2)c(-c2ccccc2)c(-c2ccc(F)cc2)n1CC[C@@H](O)C[C@@H](O)CC(=O)O` [Atorvastatin, atorvastatin], the “OR (SNP by treatment interaction, logistic regression)” value (PROVE-IT, atorvastatin vs pravastatin, rs992695, Imputed, allele C (A1), model ADD, NMISS 442) is reported as 1.16, the OR (PROVEIT, marker rs198460, cohort, model rec, End-point CHD, atorvastatin vs pravastatin) is reported as 1.55 and the OR (PROVEIT, marker rs238250, cohort, model add, End-point CVD, atorvastatin vs pravastatin) is reported as 1.24. The OR (PROVEIT, marker rs251817, caseonly, model add, End-point CVD, atorvastatin vs pravastatin) was 2.02, the OR (PROVEIT, marker rs1015199, cohort, model dom, End-point CVD, atorvastatin vs pravastatin) was 1.93 and the OR (PROVEIT, marker rs2616548, caseonly, model dom, End-point CHD, atorvastatin vs pravastatin) was 2.02. For the same compound, the OR (PROVEIT, marker rs2616552, cohort, model add, End-point CHD, atorvastatin vs pravastatin) was 1.55, the OR (PROVEIT, marker rs4686740, caseonly, model rec, End-point CVD, atorvastatin vs pravastatin) was 1.86 and the OR (PROVEIT, marker rs6474228, caseonly, model dom, End-point CHD, atorvastatin vs pravastatin) was 1.32. The OR (PROVEIT, marker rs6746182, cohort, model dom, End-point CHD, atorvastatin vs pravastatin) was 1.25, the OR (PROVEIT, marker rs7305949, cohort, model rec, End-point CHD, atorvastatin vs pravastatin) was 2.34 and the OR (PROVEIT, marker rs7785499, cohort, model rec, End-point CVD, atorvastatin vs pravastatin) was 1.68. It also gave an OR (PROVEIT, marker rs11148285, caseonly, model rec, End-point CVD, atorvastatin vs pravastatin) of 1.87, an OR (PROVEIT, marker rs12265891, caseonly, model rec, End-point CHD, atorvastatin vs pravastatin) of 2.13 and an OR (PROVEIT, marker rs16885715, caseonly, model dom, End-point CHD, atorvastatin vs pravastatin) of 1.34. It also gave an OR (PROVEIT, marker rs17048681, caseonly, model add, End-point CVD, atorvastatin vs pravastatin) of 1.25, an OR (PROVEIT, rs9960, caseonly, dom, CVD) of 1.37 and an OR (PROVEIT, rs208025, caseonly, dom, CVD) of 1.55. For the same compound, the OR (PROVEIT, rs478859, caseonly, add, CVD) was 1.32, the OR (PROVEIT, rs1439269, caseonly, add, CHD) was 1.27 and the OR (PROVEIT, rs1580713, caseonly, rec, CHD) was 1.55. The OR (PROVEIT, rs3732136, caseonly, dom, CHD) was 1.42, the OR (PROVEIT, rs6040760, caseonly, dom, CVD) was 1.34 and the OR (PROVEIT, rs6742894, caseonly, rec, CVD) was 1.94. For the same compound, the OR (PROVEIT, rs7068975, caseonly, dom, CHD) was 1.32, the OR (PROVEIT, rs9557509, caseonly, dom, CHD) was 1.29 and the OR (PROVEIT, rs10802865, caseonly, add, CHD) was 1.29. The OR (PROVEIT, rs10817479, caseonly, dom, CVD) was 1.77, the OR (PROVEIT, rs11077308, caseonly, dom, CHD) was 1.55 and the OR (PROVEIT, rs12286877, caseonly, dom, CVD) was 2.05. The OR (PROVEIT, rs12659030, caseonly, dom, CHD) was 1.27, the OR (PROVEIT, rs13411119, caseonly, dom, CVD) was 1.32 and the “OR (synergy index), PROVEIT, Atorv vs Prav” value (from here on “OR (synergy index), PROVEIT”) (SNP rs198462 (A1 G, A2 A), rec model, CHD endpoint) was 1.92. For the same compound, the “OR (synergy index), PROVEIT” value (SNP rs471579 (A1 A, A2 C), add model, CHD endpoint) was 1.27, the OR (SNP rs2882097 allele A, model DOM, Imputed, ATORVA vs PRAVA) was 1.364 and the OR (SNP rs3793044 allele C, model DOM, Imputed, ATORVA vs PRAVA) was 1.162. It also gave an OR (SNP rs3806003 allele A, model DOM, Imputed, ATORVA vs PRAVA) of 1.162, an OR (SNP rs4291049 allele T, model REC, Imputed, ATORVA vs PRAVA) of 1.16 and an OR (SNP rs4450660 allele C, model DOM, Imputed, ATORVA vs PRAVA) of 1.275. For the same compound, the “OR (synergy index), PROVEIT” value (SNP rs9346951 (A1 A, A2 G), add model, CVD endpoint) was 1.88, the “OR (synergy index), PROVEIT” value (SNP rs10787944 (A1 G, A2 A), dom model, CVD endpoint) was 1.37 and the OR (rs238252, allele G, ADD, Imputed, PROVE-IT, vs pravastatin) was 1.155. The OR (rs489441 allele G, ADD, Imputed, atorvastatin vs pravastatin) was 1.224, the OR (rs608278 allele A model ADD Imputed, ATORVA vs PRAVA) was 1.166 and the “OR (SNP x treatment interaction)” value (rs742827, allele A, REC, Imputed, atorvastatin vs pravastatin) was 2.051. The “OR (SNP x treatment interaction)” value (rs879961, allele T, DOM, Imputed, atorvastatin vs pravastatin) was 1.245, the OR (rs1016030, allele G, ADD, Genotyped) was 1.159 and the OR (rs1149349, allele T, DOM, Imputed, atorvastatin vs pravastatin) was 1.154. It also gave an OR (rs1336382 allele T DOM Imputed) of 1.364, an OR (rs1336382 allele T, DOM, Imputed, atorvastatin vs pravastatin) of 1.364 and an OR (rs1336383 allele T DOM Imputed) of 1.364. The OR (rs1336383 allele T, DOM, Imputed, atorvastatin vs pravastatin) was 1.364, the OR (rs1395748 allele G, DOM, Imputed, atorvastatin vs pravastatin) was 1.231 and the OR (rs1516855 allele G REC Imputed) was 1.236. The OR (rs1524306 allele C, ADD, Imputed, atorvastatin vs pravastatin) was 1.05, the OR (rs1694334 allele G ADD Imputed) was 1.156 and the OR (rs2023651, allele T, ADD, Imputed, PROVE-IT, vs pravastatin) was 1.235. The OR (rs2024902, allele A, DOM, Imputed, PROVE-IT, vs pravastatin) was 1.157, the OR (rs2024902 allele A (A1), DOM, Imputed, atorvastatin vs pravastatin) was 1.157 and the OR (rs2247066, allele A, DOM, Imputed, PROVE-IT, vs pravastatin) was 1.231. It also gave an OR (rs2322100, allele T, REC, Genotyped, PROVE-IT, vs pravastatin) of 2.61, an OR (rs2373793, allele G, ADD, Imputed, PROVE-IT, vs pravastatin) of 1.56 and an OR (rs2882097 allele A, DOM, Imputed, atorvastatin vs pravastatin) of 1.364. The OR (rs3793044 allele C, DOM, Imputed, atorvastatin vs pravastatin) was 1.162, the OR (rs3806003 allele A, DOM, Imputed, atorvastatin vs pravastatin) was 1.162 and the OR (rs4450660 allele C, DOM, Imputed, atorvastatin vs pravastatin) was 1.275. For the same compound, the OR (rs4586678 allele A, DOM, Imputed, atorvastatin vs pravastatin) was 1.235, the OR (rs6040636 allele T model ADD Imputed, ATORVA vs PRAVA) was 1.371 and the OR (rs6474230 allele T model DOM Imputed, ATORVA vs PRAVA) was 1.32. The OR (rs6544721 allele G model DOM Imputed, ATORVA vs PRAVA) was 1.236, the OR (rs6994498 allele G model DOM Imputed, ATORVA vs PRAVA) was 1.32 and the “OR (SNP x treatment interaction)” value (rs7220603, allele A, ADD, Genotyped, atorvastatin vs pravastatin) was 1.419. For the same compound, the “OR (SNP x treatment interaction)” value (rs7282518, allele T, ADD, Imputed, atorvastatin vs pravastatin) was 1.054, the “OR (SNP x treatment interaction)” value (rs7305832, allele C, REC, Imputed, atorvastatin vs pravastatin) was 2.008 and the OR (rs7468898 allele T model ADD Imputed, ATORVA vs PRAVA) was 1.05. For the same compound, the “OR (SNP x treatment interaction)” value (rs7600050, allele C, ADD, Imputed, atorvastatin vs pravastatin) was 1.316, the “OR (SNP x treatment interaction)” value (rs7621663, allele G, ADD, Imputed, atorvastatin vs pravastatin) was 1.048 and the OR (rs7639053 allele A model ADD Imputed, ATORVA vs PRAVA) was 1.02. The OR (rs7713251 allele C model REC Imputed, ATORVA vs PRAVA) was 1.11, the “OR (SNP x treatment interaction)” value (rs7719448, allele G, REC, Imputed, atorvastatin vs pravastatin) was 1.235 and the “OR (SNP x treatment interaction)” value (rs7742476, allele T, DOM, Imputed, atorvastatin vs pravastatin) was 1.23. For the same compound, the “OR (SNP x treatment interaction)” value (rs7767265, allele G, DOM, Imputed, atorvastatin vs pravastatin) was 1.155, the OR (rs7767265 allele G model DOM Imputed, ATORVA vs PRAVA) was 1.155 and the “OR (SNP x treatment interaction)” value (rs7771264, allele T, DOM, Imputed, atorvastatin vs pravastatin) was 1.051. For the same compound, the “OR (SNP x treatment interaction)” value (rs7808536, allele G, DOM, Imputed, atorvastatin vs pravastatin) was 1.374, the OR (rs7808536 allele G model DOM Imputed, ATORVA vs PRAVA) was 1.374 and the “OR (SNP x treatment interaction)” value (rs7894867, allele T, DOM, Imputed, atorvastatin vs pravastatin) was 1.426. For the same compound, the “OR (SNP x treatment interaction)” value (rs7921834, allele C, DOM, Imputed, atorvastatin vs pravastatin) was 1.347, the “OR (SNP x treatment interaction)” value (rs8103016, allele A, DOM, Genotyped, atorvastatin vs pravastatin) was 1.343 and the “OR (SNP x treatment interaction)” value (rs9310700, allele C, ADD, Imputed, atorvastatin vs pravastatin) was 1.048. The “OR (SNP x treatment interaction)” value (rs9815037, allele T, ADD, Imputed, atorvastatin vs pravastatin) was 1.048, the “OR (SNP x treatment interaction)” value (rs9825349, allele A, ADD, Imputed, atorvastatin vs pravastatin) was 1.048 and the “OR (SNP x treatment interaction)” value (rs9833118, allele G, ADD, Imputed, atorvastatin vs pravastatin) was 1.048. The “OR (SNP x treatment interaction)” value (rs9834217, allele T, ADD, Imputed, atorvastatin vs pravastatin) was 1.017, the “OR (SNP x treatment interaction)” value (rs9834217, allele T, DOM, Imputed, atorvastatin vs pravastatin) was 1.049 and the “OR (SNP x treatment interaction)” value (rs9840460, allele T, ADD, Imputed, atorvastatin vs pravastatin) was 1.017. For the same compound, the “OR (SNP x treatment interaction)” value (rs9840460, allele T, DOM, Imputed, atorvastatin vs pravastatin) was 1.049, the OR (rs10183431, allele T, DOM, Imputed) was 1.231 and the OR (rs10270624, allele G, DOM, Imputed, atorvastatin vs pravastatin) was 1.374. For the same compound, the OR (rs10509477, allele T, DOM, Imputed) was 1.364, the OR (rs10509477, allele T, DOM, Imputed, atorvastatin vs pravastatin) was 1.364 and the OR (rs10765769, allele C, ADD, Imputed) was 1.226. For the same compound, the OR (rs10831422, allele C, ADD, Imputed) was 1.164, the OR (rs10865197, allele C, DOM, Imputed) was 1.231 and the OR (rs10870473, allele A, ADD, Imputed, atorvastatin vs pravastatin) was 1.273. The OR (rs10886452, allele A, DOM, Imputed) was 1.376, the OR (rs10886452, allele A, DOM, Imputed, atorvastatin vs pravastatin) was 1.376 and the OR (rs10886526, allele C, DOM, Imputed) was 1.364. The OR (rs10886526, allele C, DOM, Imputed, atorvastatin vs pravastatin) was 1.364, the OR (rs10972978, allele G, DOM, Imputed) was 1.24 and the OR (rs10974028, allele G, DOM, Genotyped) was 1.224. The OR (rs11021302, allele A, ADD, Imputed) was 1.164, the OR (rs11198877, allele T, DOM, Imputed) was 1.369 and the OR (rs11198877, allele T, DOM, Imputed, atorvastatin vs pravastatin) was 1.369. The OR (rs11198942, allele T, DOM, Imputed) was 1.364, the OR (rs11198942, allele T, DOM, Imputed, atorvastatin vs pravastatin) was 1.364 and the OR (rs12509758 allele C, DOM, Imputed, atorvastatin vs pravastatin) was 1.34. For the same compound, the OR (rs12543110 allele G DOM Imputed) was 1.32, the OR (rs13194907 allele A DOM Imputed) was 1.162 and the OR (rs13194907 allele A, DOM, Imputed, atorvastatin vs pravastatin) was 1.162. For the same compound, the OR (rs13195745 allele A DOM Imputed) was 1.162 and the OR (rs13195745 allele A, DOM, Imputed, atorvastatin vs pravastatin) was 1.162.
